Laboratory results: PubChem BioAssay AID1259424 (University of Nebraska Medical Center, 2018)
Assay: 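Rank knockdowns across the genome by resemblance to the KSR1 depletion profile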 (primary screen). Cells: human HCT116 colon cancer cells. Reagents: siRNA pool against human genes, 50 nM. Measurement: 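Six signature mRNAs by branched-DNA multiplex assay, scaled to two housekeeping genes and non-targeting median, log2; matched to mean KSR1 knockdown profile by Pearson correlation and euclidean distance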. Direction: mean correlation with KSR1 profile: higher = expression change more like KSR1 knockdown.
This is a random part of about 14,000 deposited reagents. 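Higher correlation or smaller distance means closer resemblance to KSR1 loss; control wells, including KSR1 knockdowns, recur on many plates.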 Not all columns of the deposit are shown. The record does not give: the time to read-out.

SYN3 (GeneID 8224): mean correlation with KSR1 profile = 0.385
ADAM9 (GeneID 8754): mean correlation with KSR1 profile = 0.102
EXTL1 (GeneID 2134): mean correlation with KSR1 profile = -0.065
ZNF398 (GeneID 57541): mean correlation with KSR1 profile = 0.284
IL9R (GeneID 3581): mean correlation with KSR1 profile = 0.245
EIF3I (GeneID 8668): mean correlation with KSR1 profile = -0.0599
THY1 (GeneID 7070): mean correlation with KSR1 profile = -0.614
CFAP263 (GeneID 29070): mean correlation with KSR1 profile = -0.458
CARMIL1 (GeneID 55604): mean correlation with KSR1 profile = -0.398
P2RY10 (GeneID 27334): mean correlation with KSR1 profile = 0.66
BAHCC1 (GeneID 57597): mean correlation with KSR1 profile = -0.108
SFTPD (GeneID 6441): mean correlation with KSR1 profile = 0.0297

Individual results from the entries so far.
Entry for CARMIL1 (GeneID 55604) in “mean correlation with KSR1 profile”: -0.398
BAHCC1 (GeneID 57597), mean correlation with KSR1 profile = -0.108
